This note sets out measurements from the supplement of paper PMC9744312.

SMILES strings stand for the structures. Structures can show the parent of a compound that is named as a salt. The list shows a part of the results. This is a noisy data set.

In this experiment the test system is Peyronie's disease tunica albuginea primary fibroblasts. Briefly: cell viability (DRAQ5 nuclear stain) relative to TGF-beta1-only control; higher = more viable cells. The note with it: 10 µM; TGF-beta1 10 ng/mL; 72 h.
On to `O=c1[nH]cnc2c1ncn2[C@H]1CC[C@@H](CO)O1` [Didanosine], for which the cell viability was 83.1%.

Regarding `CCCC(=O)OCOC(=O)C1=C(C)NC(C)=C(C(=O)OC)C1c1cccc(Cl)c1Cl` (configuration not stated) [Clevidipine Butyrate], the cell viability was determined as 96.4%.

With `NC(CO)C(=O)NNCc1ccc(O)c(O)c1O` (configuration not stated) [Benserazide HCl], the cell viability was 94.1%.

As for `C[C@H]1COc2c(N3CCN(C)CC3)c(F)cc3c(=O)c(C(=O)O)cn1c23` [Levofloxacin], the cell viability worked out at 99.2%.

As for `C[C@H]1COc2c(N3CCN(C)CC3)c(F)cc3c(=O)c(C(=O)O)cn1c23` [Levofloxacin hydrate], the cell viability amounted to 97.5%.

`C[N+](C)(C)CCO.[Cl-]` [Choline Chloride] displayed a cell viability of 93.6%.

Regarding `C/C=C1\[C@H]2C=C(C)C[C@]1(N)c1ccc(=O)[nH]c1C2` [(-)-Huperzine A (HupA)], the cell viability was determined as 92.5%.

The compound `O=c1[nH]cnc2[nH]ncc12` [Allopurinol Sodium] showed a cell viability of 92.1%.

Regarding `CCOC(=O)[C@H](CCc1ccccc1)N[C@@H](C)C(=O)N1Cc2cc(OC)c(OC)cc2C[C@H]1C(=O)O` [Moexipril HCl], the cell viability stood at 91.3%.

`CN1CCC(OC(c2ccccc2)c2ccccc2)CC1` [Diphenylpyraline HCl] showed a cell viability of 91.1%.

Compound `COC(=O)c1ccc2c(C(=Nc3ccc(N(C)C(=O)CN4CCN(C)CC4)cc3)c3ccccc3)c(O)[nH]c2c1` [Nintedanib Ethanesulfonate Salt] came in with a cell viability of 66.5%.

On to `Clc1ccc(Nc2nnc(Cc3ccncc3)c3ccccc23)cc1` [Vatalanib (PTK787) 2HCl], for which the cell viability was found to be 73.1%.

The compound `CC(=O)SCC(Cc1ccccc1)C(=O)NCC(=O)OCc1ccccc1` (configuration not stated) [Racecadotril] displayed a cell viability of 88.6%.

As to `C[C@H](CCC(=O)O)[C@H]1CC[C@H]2[C@@H]3CC[C@@H]4C[C@H](O)CC[C@]4(C)[C@H]3CC[C@]12C` [Lithocholic acid], the cell viability is 92.5%.

As for `N[C@@H](CSCCCO)C(=O)O` [Fudosteine], the cell viability was found to be 99.4%.

In the case of `CCNC(=O)[C@@H]1CCCN1C(=O)[C@H](CCCN=C(N)N)NC(=O)[C@H](CC(C)C)NC(=O)[C@@H](C)NC(=O)[C@H](Cc1ccc(O)cc1)NC(=O)[C@H](CO)NC(=O)[C@H](Cc1c[nH]c2ccccc12)NC(=O)[C@H](Cc1cnc[nH]1)NC(=O)[C@@H]1CCC(=O)N1` [Alarelin Acetate], the cell viability was found to be 97.6%.

Compound `COC(=O)C1=C(C)NC(C)=C(C(=O)OC(C)C)C1c1cccc2nonc12` (configuration not stated) [Isradipine] displayed a cell viability of 92.4%.

Turning to `CCOC(=O)Nc1ccc(NCc2ccc(F)cc2)nc1N` [Flupirtine maleate], the cell viability stood at 96%.

Consider `COCC(=O)Nc1c(I)c(C(=O)NCC(O)CO)c(I)c(C(=O)N(C)CC(O)CO)c1I` (configuration not stated) [Iopromide], for which the cell viability came to 90.6%.

Consider `CN1CCN(c2cc3c(cc2F)c(=O)c(C(=O)O)cn3-c2ccc(F)cc2)CC1` [Difloxacin HCl], for which the cell viability was 85.8%.

In turn, `O=C(O)CCCC[C@@H]1SC[C@@H]2NC(=O)N[C@@H]21` [Biotin (Vitamin B7)] registered a cell viability of 99.7%.

Turning to `CC(C)C(=O)Nc1ccc([N+](=O)[O-])c(C(F)(F)F)c1` [Flutamide], the cell viability is 83.6%.

`Cn1cnc([N+](=O)[O-])c1Sc1ncnc2[nH]cnc12` [Azathioprine]: the cell viability was 88.2%.

`CC(=O)Oc1cc2c(s1)CCN(C(C(=O)C1CC1)c1ccccc1F)C2` (configuration not stated) [Prasugrel] returned a cell viability of 95%.

For `CC(=O)Oc1cc2c(s1)CCN(C(C(=O)C1CC1)c1ccccc1F)C2` (configuration not stated) [Prasugrel Hydrochloride], the cell viability worked out at 71.1%.

`C#C[C@]1(O)CC[C@H]2[C@@H]3CCC4=CCCC[C@@H]4[C@H]3C(=C)C[C@@]21CC` [Desogestrel] registered a cell viability of 72.4%.

Compound `CC(=O)OCC[N+](C)(C)C` [Acetylcholine iodide] registered a cell viability of 95.1%.

`S=C(NCc1ccc2c(c1)OCO2)N1CCN(c2ncnc3c2oc2ccccc23)CC1` [Amuvatinib (MP-470)] showed a cell viability of 92.7%.

As to `OCCN1C[C@H](O)[C@@H](O)[C@H](O)[C@H]1CO` [Miglitol], the cell viability stood at 98.1%.

Compound `CC1=C(C/C=C(\C)CCC[C@H](C)CCC[C@H](C)CCCC(C)C)C(=O)c2ccccc2C1=O` [Vitamin K1] gave a cell viability of 52.1%.

The compound `Cc1cnc(C(=O)O)c[n+]1[O-]` [Acipimox] had a cell viability of 93.2%.

`Cc1cc(S(=O)(=O)O)c2c(C)ccc(C(C)C)cc1-2` [Sodium gualenate] yielded a cell viability of 86.3%.

The compound `O=C(O)C1(C(=O)O)CCC1.[NH2-].[NH2-].[Pt+2]` [Carboplatin] returned a cell viability of 92.7%.

`Cc1cc(N2CCN([C@@H]3CN[C@H](C(=O)N4CCSC4)C3)CC2)n(-c2ccccc2)n1` [Teneligliptin hydrobromide] gave a cell viability of 82.6%.

As for `Nc1ccc(S(=O)(=O)Nc2cncc(Cl)n2)cc1` [Sulfalozine sodium], the cell viability was found to be 48.1%.

With `COc1ccc(CN2CCN(C(c3ccc(F)cc3)c3ccc(F)cc3)CC2)c(OC)c1OC` [Lomerizine 2HCl], the cell viability turned out to be 94.9%.

As to `COc1ccc(C(=O)c2ccccc2O)c(O)c1` [2,2′-Dihydroxy-4-methoxybenzophenone], the cell viability amounted to 81.6%.

As for `COCCc1ccc(OCC(O)CNC(C)C)cc1` (configuration not stated) [Metoprolol Tartrate], the cell viability turned out to be 91.6%.

On to `COCCc1ccc(OCC(O)CNC(C)C)cc1` (configuration not stated) [Metoprolol succinate], for which the cell viability is 99.2%.

The compound `COCCc1ccc(OCC(O)CNC(C)C)cc1` (configuration not stated) [Metoprolol] came in with a cell viability of 81.9%.

With `CCN1CCN(Cc2ccc(Nc3ncc(F)c(-c4cc(F)c5nc(C)n(C(C)C)c5c4)n3)nc2)CC1`, the cell viability stood at 91.6%.

`CCN1CCN(Cc2ccc(Nc3ncc(F)c(-c4cc(F)c5nc(C)n(C(C)C)c5c4)n3)nc2)CC1` [Abemaciclib] registered a cell viability of 84.1%.

On to `Nc1nc2[nH]cc(CCc3ccc(C(=O)N[C@@H](CCC(=O)O)C(=O)O)cc3)c2c(=O)[nH]1` [Pemetrexed], for which the cell viability turned out to be 96.6%.

`Nc1nc2[nH]cc(CCc3ccc(C(=O)N[C@@H](CCC(=O)O)C(=O)O)cc3)c2c(=O)[nH]1` [Pemetrexed Disodium Hydrate] displayed a cell viability of 92.4%.

Consider `CC(C)[C@H](N)C(=O)OCC(CO)OCn1cnc2c(=O)[nH]c(N)nc21` (some centres not stated) [Valganciclovir HCl], for which the cell viability came to 89%.

Compound `CN1CCC[C@@H]1CCO[C@](C)(c1ccccc1)c1ccc(Cl)cc1` [Clemastine Fumarate] registered a cell viability of 72.1%.

Regarding `CCOc1ccc(NC(C)=O)cc1` [Phenacetin], the cell viability stood at 74.4%.

Take `NCCCCC(NC(=O)C1CCCN1C(=O)C1CSSCC(N)C(=O)NC(Cc2ccc(O)cc2)C(=O)NC(Cc2ccccc2)C(=O)NC(CCC(N)=O)C(=O)NC(CC(N)=O)C(=O)N1)C(=O)NCC(N)=O` (configuration not stated) [Lypressin Acetate]: the cell viability is 83%.

As for `COc1cc2ncnc(Nc3ccc(F)c(Cl)c3)c2cc1OCCCN1CCOCC1` [Gefitinib (ZD1839)], the cell viability worked out at 86.6%.

In turn, `COc1cc2ncnc(Nc3ccc(F)c(Cl)c3)c2cc1OCCCN1CCOCC1` [Gefitinib hydrochloride] returned a cell viability of 59.2%.

Compound `CN1CCN(c2nc(C3=C(c4c[nH]c5ccccc45)C(=O)NC3=O)c3ccccc3n2)CC1` [Sotrastaurin] yielded a cell viability of 86.9%.

The compound `CC(C(=O)O)c1ccc(C(=O)c2cccs2)cc1` (configuration not stated) [Suprofen] yielded a cell viability of 82.1%.

On to `COC(=O)[C@]12CCC(C)(C)C[C@H]1[C@H]1C(=O)C=C3[C@@]4(C)C=C(C#N)C(=O)C(C)(C)[C@@H]4CC[C@@]3(C)[C@]1(C)CC2` [Bardoxolone Methyl], for which the cell viability was found to be 25.2%.

Take `CCCCC[C@H](O)/C=C/[C@H]1[C@H](O)CC(=O)[C@@H]1CCCCCCC(=O)O` [Alprostadil]: the cell viability came out at 89.7%.

With `CC[C@@H]([C@H](C)O)n1ncn(-c2ccc(N3CCN(c4ccc(OC[C@@H]5CO[C@@](Cn6cncn6)(c6ccc(F)cc6F)C5)cc4)CC3)cc2)c1=O` [Posaconazole], the cell viability came to 78%.

The compound `O=C(O)c1ccccc1` [Benzoic Acid] displayed a cell viability of 94.6%.

In turn, `CCN(CCCOc1ccc2c(Nc3cc(CC(=O)Nc4cccc(F)c4)[nH]n3)ncnc2c1)CCOP(=O)(O)O` [Barasertib (AZD1152-HQPA)] yielded a cell viability of 65.4%.

Consider `NCc1ccc(S(N)(=O)=O)cc1` [Mafenide Acetate], for which the cell viability was found to be 89.8%.

As for `NCc1ccc(S(N)(=O)=O)cc1` [Mafenide hydrochloride], the cell viability stood at 94.8%.

In turn, `CN[C@@H]1[C@H](O[C@H]2[C@H](O[C@H]3[C@H](O)[C@@H](O)[C@H](NC(=N)N)[C@@H](O)[C@@H]3NC(=N)N)O[C@@H](C)[C@]2(O)CO)O[C@@H](CO)[C@H](O)[C@H]1O` [Dihydrostreptomycin sulfate] gave a cell viability of 89%.

In turn, `CC/C(=C(\c1ccccc1)c1ccc(OCCN(C)C)cc1)c1ccccc1` [Tamoxifen] had a cell viability of 97.6%.

`CC/C(=C(\c1ccccc1)c1ccc(OCCN(C)C)cc1)c1ccccc1` [Tamoxifen Citrate] yielded a cell viability of 86.3%.

Turning to `CCc1oc2ccccc2c1C(=O)c1cc(Br)c(O)c(Br)c1` [Benzbromarone], the cell viability amounted to 85.4%.

`C=C(c1ccc(C(=O)O)cc1)c1cc2c(cc1C)C(C)(C)CCC2(C)C` [Bexarotene] yielded a cell viability of 92.3%.

In turn, `CCOC(=O)[N-]c1c[n+](N2CCOCC2)no1` [Molsidomine] gave a cell viability of 86.7%.

The compound `CC[N+](CC)(CC)CCOc1cccc(OCC[N+](CC)(CC)CC)c1OCC[N+](CC)(CC)CC` [Gallamine Triethiodide] gave a cell viability of 99.4%.

In turn, `CC(C)(C)NCC(O)c1cc(O)cc(O)c1` (configuration not stated) [Terbutaline Sulfate] returned a cell viability of 95.2%.

Consider `CNCc1cc(-c2ccccc2F)n(S(=O)(=O)c2cccnc2)c1` [Vonoprazan Fumarate (TAK-438)], for which the cell viability was determined as 80.3%.

`Cc1ccccc1C(OCCN(C)C)c1ccccc1` (configuration not stated) [Orphenadrine Hydrochloride]: the cell viability is 94.6%.

As to `Cc1ccccc1C(OCCN(C)C)c1ccccc1` (configuration not stated) [Orphenadrine Citrate], the cell viability is 92.1%.

In turn, `O=C1C(O)=C([C@H]2CC[C@H](c3ccc(Cl)cc3)CC2)C(=O)c2ccccc21` [Atovaquone] displayed a cell viability of 92.2%.

`O=C1CCc2ccc(OCCCCN3CCN(c4cccc(Cl)c4Cl)CC3)cc2N1` [Aripiprazole]: the cell viability was determined as 87.9%.
